PubChem BioAssay AID1671195, Yale University – 2021

Purpose: 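Genes whose knockdown alters LDL uptake in liver cancer cells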 (primary screen)
Cells: human Huh7 hepatoma cells
Reagent: siRNA pool against human genes, 18 nM
Time to read-out: about 2 to 2.5 days of knockdown, then 8 h LDL uptake
Conditions: DiI-labelled LDL at 30 µg/ml for 8 h, in lipoprotein-deficient serum medium
Detection: 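Per-cell DiI-LDL intensity by automated imaging; well means scaled to the plate median and given as a robust z-score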
Reading the numbers: robust z-score: higher = more LDL uptake after knockdown
Rule for the call: 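Active when two or more replicates show a robust z-score above 2 or below -2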
The whole screen tested about 22,000 reagents; shown is a part drawn at random. About 1,510 of them (6.9%) were called active. 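Active includes knockdowns raising or lowering LDL uptake; positive z-scores mean more uptake, negative mean less.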 Entries without a mark were called inactive. Reagent sequences are not shown.

Gene	robust z-score, replicate 1	robust z-score, replicate 2	robust z-score, replicate 3
ACRV1 (GeneID 56)	0.603	-0.571	-0.468
RPP40 (GeneID 10799)	-0.427	-0.703	-0.756
RPS3 (GeneID 6188)	-1.62	-0.892	0.353
MEX3A (GeneID 92312)	2.47	0.762	1.32
SCNN1B (GeneID 6338)	-0.7	-0.602	-0.292
TXNRD1 (GeneID 7296)	-0.875	-0.738	-1.08
KRTAP12-2 (GeneID 353323)	0.367	0.909	0.668
SRSF1 (GeneID 6426)	-0.163	-0.13	0.33
PRSS3 (GeneID 5646)	0.436	-0.609	0.902
NOS3 (GeneID 4846)	1.94 (active)	2.17	1.6
PLEKHH1 (GeneID 57475)	0.708	-0.745	-0.222
GJA10 (GeneID 84694)	1.05	-0.276	-0.411
ENC1 (GeneID 8507)	-0.817	0.151	-0.949
FRMD7 (GeneID 90167)	-1.38	-1.45	-0.977
HNRNPA3P5 (GeneID 387933)	-1.33	-1.21	-1.19
TNFRSF4 (GeneID 7293)	0.0557	0.0282	-0.0505
CCAR2 (GeneID 57805)	-0.738	-0.658	0.361
IL1R2 (GeneID 7850)	-0.414	-1.55	-0.892
IGFLR1 (GeneID 79713)	0.148	0.551	0.178
LOC388898 (retired record) (GeneID 388898)	0.227	0.474	-0.0473
TAS2R13 (GeneID 50838)	-0.423	-1.98	-0.814
MYL1 (GeneID 4632)	2.06 (active)	2.2	2.9

11 entries from above, ordered by “robust z-score, replicate 2”, descending:
Gene	robust z-score, replicate 1	robust z-score, replicate 2	robust z-score, replicate 3
NOS3 (GeneID 4846)	1.94 (active)	2.17	1.6
KRTAP12-2 (GeneID 353323)	0.367	0.909	0.668
MEX3A (GeneID 92312)	2.47	0.762	1.32
ENC1 (GeneID 8507)	-0.817	0.151	-0.949
SRSF1 (GeneID 6426)	-0.163	-0.13	0.33
GJA10 (GeneID 84694)	1.05	-0.276	-0.411
SCNN1B (GeneID 6338)	-0.7	-0.602	-0.292
PRSS3 (GeneID 5646)	0.436	-0.609	0.902
TXNRD1 (GeneID 7296)	-0.875	-0.738	-1.08
PLEKHH1 (GeneID 57475)	0.708	-0.745	-0.222
RPS3 (GeneID 6188)	-1.62	-0.892	0.353

More records follow.
Gene	robust z-score, replicate 1	robust z-score, replicate 2	robust z-score, replicate 3
FCRL6 (GeneID 343413)	1.77	1.56	1.23
LRFN1 (GeneID 57622)	-0.907	-0.57	-1.11
OARD1 (GeneID 221443)	1.52	1.78	1.51
IRGM (GeneID 345611)	1.25	0.687	1.55
GABRA4 (GeneID 2557)	-0.911	-0.671	-0.55
CIDEB (GeneID 27141)	-0.293	2.4	1.36
LOC442474 (retired record) (GeneID 442474)	1.05	1.31	1.17
SPINK1 (GeneID 6690)	-2.18 (active)	-1.9	-2.15
TP73 (GeneID 7161)	1.07	1.24	1.09
LOC388438 (retired record) (GeneID 388438)	-0.334	-0.515	-0.47
THAP11 (GeneID 57215)	2.4 (active)	2	2.13
R3HCC1 (GeneID 203069)	1.13	0.499	0.944
TPSD1 (GeneID 23430)	-1.34	-1.07	-1.25
TOM1L1 (GeneID 10040)	0.719	-1.01	-0.159
LY6D (GeneID 8581)	2.42	-0.0823	1.16
FAXDC2 (GeneID 10826)	2.1 (active)	1.93	1.17
PWWP3A (GeneID 84939)	0.0838	-0.347	-0.513
ABCA17P (GeneID 650655)	-0.601	-0.135	-0.788
LINC01376 (GeneID 400945)	-0.983	-0.987	-0.874
LINC00158 (GeneID 54072)	0.565	0.34	0.462
VAMP8 (GeneID 8673)	1.52	0.854	2.17
BNC1 (GeneID 646)	-0.379	-0.834	2.15
LOC441043 (retired record) (GeneID 441043)	1.09	0.797	1.04
ILKAP (GeneID 80895)	-1.71	-1.92	-1.61
CHCHD3 (GeneID 54927)	0.754	-0.391	0.574
TEX9 (GeneID 374618)	0.0175	-0.137	0.0668
PYCR1 (GeneID 5831)	1.4	0.881	1.89
GABRG2 (GeneID 2566)	0.789	0.365	0.103
KCNV2 (GeneID 169522)	-0.632	-0.714	-0.554
LOC388220 (retired record) (GeneID 388220)	-1.17	-1.21	-1.06
RASGRP2 (GeneID 10235)	0.796	1.23	1.04
CHAMP1 (GeneID 283489)	-0.0464	-0.0552	-0.0116
TMEM8B (GeneID 51754)	2.37 (active)	2.28	-1.06
LOC388922 (retired record) (GeneID 388922)	-0.157	0.164	0.00468
MPEG1 (GeneID 219972)	0.963	0.967	1.43
ZNF475 (GeneID 100505841)	0.578	0.589	1.38
UGCG (GeneID 7357)	-2.02 (active)	-1.86	-1.51
DNAJA3 (GeneID 9093)	-0.541	-0.279	-0.314
OR5L1 (GeneID 219437)	-0.96	-1.11	-1.05
PNMA6A (GeneID 84968)	-0.347	-0.112	0.035
SLC25A51 (GeneID 92014)	0.834	1.36	0.913
FCGRT (GeneID 2217)	-1.73	-2.28	-1.82
LRIG3 (GeneID 121227)	-1.3	-1.09	-1.19
MAB21L4 (GeneID 79919)	-1.31	-1.7	-1.79
SYNE4 (GeneID 163183)	-0.759	-0.0279	-0.702
CETN3 (GeneID 1070)	0.766	0.745	0.81
